Data from article PMC12774626.
No constants are given. Whether binding was seen depends on the method and setting. In cells and extracts the contact can be indirect. Some binding calls cover weakened binding; strength is not graded here.

The chains behind the UniProt entries cited, without tags or fusion partners.
UniProt Q13263: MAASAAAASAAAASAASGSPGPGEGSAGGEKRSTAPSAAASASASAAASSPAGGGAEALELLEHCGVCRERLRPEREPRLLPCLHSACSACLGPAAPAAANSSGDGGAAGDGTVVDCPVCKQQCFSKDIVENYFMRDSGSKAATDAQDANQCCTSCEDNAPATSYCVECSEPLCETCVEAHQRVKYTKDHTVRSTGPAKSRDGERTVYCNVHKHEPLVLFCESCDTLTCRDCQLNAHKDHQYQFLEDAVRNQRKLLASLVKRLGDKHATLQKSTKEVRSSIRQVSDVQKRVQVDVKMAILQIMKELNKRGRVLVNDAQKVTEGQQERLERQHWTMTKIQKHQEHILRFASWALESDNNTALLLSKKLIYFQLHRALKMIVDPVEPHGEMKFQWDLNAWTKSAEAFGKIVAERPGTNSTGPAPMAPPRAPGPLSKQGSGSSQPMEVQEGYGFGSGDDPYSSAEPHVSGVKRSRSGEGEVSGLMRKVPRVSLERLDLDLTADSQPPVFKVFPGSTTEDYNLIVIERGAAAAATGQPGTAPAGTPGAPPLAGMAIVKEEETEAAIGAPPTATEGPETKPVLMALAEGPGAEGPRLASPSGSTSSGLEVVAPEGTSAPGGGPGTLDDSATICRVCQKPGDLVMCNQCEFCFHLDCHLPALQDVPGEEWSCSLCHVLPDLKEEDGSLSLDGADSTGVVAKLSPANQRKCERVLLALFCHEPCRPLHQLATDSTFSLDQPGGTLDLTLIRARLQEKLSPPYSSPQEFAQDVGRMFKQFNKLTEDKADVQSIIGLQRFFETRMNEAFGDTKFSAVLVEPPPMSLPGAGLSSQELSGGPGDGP
UniProt P13383: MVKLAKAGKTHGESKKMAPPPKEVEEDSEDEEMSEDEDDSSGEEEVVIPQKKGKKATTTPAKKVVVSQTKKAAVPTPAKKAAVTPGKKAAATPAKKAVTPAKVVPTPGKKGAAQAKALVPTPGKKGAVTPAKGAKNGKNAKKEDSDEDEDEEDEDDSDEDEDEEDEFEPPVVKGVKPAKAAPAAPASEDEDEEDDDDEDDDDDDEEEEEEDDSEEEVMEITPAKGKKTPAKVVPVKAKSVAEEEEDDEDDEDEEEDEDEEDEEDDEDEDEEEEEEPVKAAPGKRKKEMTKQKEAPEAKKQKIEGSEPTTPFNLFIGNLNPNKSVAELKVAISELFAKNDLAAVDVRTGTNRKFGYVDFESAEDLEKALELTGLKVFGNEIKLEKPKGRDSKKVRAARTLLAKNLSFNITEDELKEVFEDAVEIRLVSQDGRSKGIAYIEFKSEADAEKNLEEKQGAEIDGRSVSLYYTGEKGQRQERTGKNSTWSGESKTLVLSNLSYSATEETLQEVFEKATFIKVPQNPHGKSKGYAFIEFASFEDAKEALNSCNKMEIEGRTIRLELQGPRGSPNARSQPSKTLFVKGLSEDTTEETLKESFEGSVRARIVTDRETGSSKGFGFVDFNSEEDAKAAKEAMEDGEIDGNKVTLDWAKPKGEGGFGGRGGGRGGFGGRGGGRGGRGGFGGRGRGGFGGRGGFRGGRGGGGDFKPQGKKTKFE

Biological target: KAP1, overexpressed in PC12 cells (UniProt Q13263)
Experiment: co-IP; PC12 cells overexpressing KAP1 and YTHDC1, with and without FAM20C knockdown; KAP1 as reference

binding: binds
Substance: NCL, endogenous in PC12 cells (from UniProt P13383 1-713)
